# Source: US20120095062A1, “TRICYCLIC COMPOUNDS, COMPOSITIONS, AND METHODS” (Pfizer Inc., priority 2007, published 2012)
# Experiment: Dissociation index (side-effect biomarker versus anti-inflammatory biomarker)
# Format: in vivo, mice
# [1] = across mice in different models using plasma exposure to normalize
# [2] = relative to prednisolone, the 10th table
compound,measurement,setting,value
"Cc1ncccc1NC(=O)c1ccc2c(c1)CC[C@@H]1C[C@@](O)(C(F)(F)F)CC[C@@]21Cc1ccccc1 [Example 1, (4βS,7R,8αR)-4β-benzyl-7-hydroxy-N-(2-methylpyridin-3-yl)-7-(trifluoromethyl)-4β,5,6,7,8,8α,9,10-octahydrophenanthrene-2-carboxamide]",Dissociation Index BFR/disease incidence (EAUC50),[1],6.8
same,Dissociation Index BFR/disease severity (EAUC50),[1],3.0
same,Dissociation Index OC/TNFα (ED80),ratio of ED80 doses,greater than 4
same,Corrected Dissociation Index BFR/TNFα (EAUC50),[2],12.0
same,Corrected Dissociation Index BFR/disease incidence (EAUC50),[2],17.0
same,Corrected Dissociation Index BFR/disease severity (EAUC50),[2],15.0
